# Results published in paper PMC3760890.
# Key:
# [1] = biological target: FLN2 (Fructokinase-Like Protein2), yeast two-hybrid fusion (Arabidopsis thaliana); experiment: two-hybrid; pairwise tests in yeast, pGBKT7 (BD) and pGADT7 (AD) fusions
# [2] = biological target: FLN2 (Fructokinase-Like Protein2), yeast two-hybrid fusion (Arabidopsis thaliana); experiment: two-hybrid; screen: FLN2 fused to GAL4 BD as bait against a pool of the thirty-five reported TAC components fused to GAL4 AD; blue clones on SD medium lacking Trp, Leu, His and Ade with X-alpha-gal, identified by PCR and sequencing
binding [1],binding [2],Binder
binds,binds,"thioredoxin z (TRX z), yeast two-hybrid fusion (protein, UniProt Q9M7X9 1-183) MALVQSRTFPHLNTPLSPILSSLHAPSSLFIRREIRPVAAPFSSSTAGNLPFSPLTRPRKLLCPPPRGKFVREDYLVKKLSAQELQELVKGDRKVPLIVDFYATWCGPCILMAQELEMLAVEYESNAIIVKVDTDDEYEFARDMQVRGLPTLFFISPDPSKDAIRTEGLIPLQMMHDIIDNEM"
binds,binds,"FLN1 (Fructokinase-Like Protein1), yeast two-hybrid fusion (protein, UniProt Q9M394 1-471) MASLLIFPHLHHFDSSLDRREVLVVRHSQASRRFLTPKASINGSGITNGAAAETTSKPSRKGRKKKQTSTVIEKDNTETDPELNPELADYDDGIEFPYDDPPLVCCFGAVQKEFVPVVRVHDNPMHPDMYSQWKMLQWDPPEFGRAPGGPPSNVAISHVRLGGRAAFMGKVGEDDFGDELVLMMNQERVQTRAVKFDENSKTACTRVKIKFKDGKMMAETVKEPPEDSLFASELNLAVLKEARIFHFNSEVLTSPTMQSTLFTAIQWSKKFGGLIFFDLNLPLPLWRSRNETRKLIKKAWNEANIIEVSQQELEFLLDEDYYERRRNYTPQYFAEDFDQTKNRRDYYHYTPEEIKSLWHDKLKLLVVTDGTLRLHYYTPTFDGVVIGTEDVLITPFTCDRTGSGDAVVAGIMRKLTTCPEMFEDQDVMERQLRFAVAAGIIAQWTIGAVRGFPTESATQNLKEQVYVPSMW"
no binding,–,"pTAC14, yeast two-hybrid fusion (protein, UniProt Q84JF5 1-483) MASSVSLQFLTNTFISKPQGFCNGIVSAPRPRSNLLRDRQNGVRPIKVASIETQPFPLFQSPASEESSSSELETADPDFYKIGYVRSVRAYGVEFKEGPDGFGVYASKDIEPRRRARVIMEIPLELMITIRQKHPWMFFPDIVPIGHPIFDIINSTDPEIDWDIRLACLLLFSFDRDDHFWRLYGDFLPAADECSSLLLATEEDLAELQDPDLVSTIRQQQKRILDFWEKNWHSGVPLKIKRLAEDPERFIWAVSMAQTRCISMQTRVGALVQELNMMIPYADMLNHSFEPNCFLHWRPKDRMLEVMSNAGQDIKKGEEMTINYMPGQKNNMLMERYGFSTPVNPWDAIKFSGDSRIHLNSFLSVFNIYGLPEEYYHDSELSRGDTFVDGAVIAAARTLPTWSDIDLPPIPSAERKAVKELQDECRKMLAEYPTTAEQDQKLLDSMSEARTTFATAVKYRMHRKMFIGKIIKALDIYQERLLY"
no binding,–,"pTAC12, yeast two-hybrid fusion (protein, UniProt F4IHY7 1-527) MASISTTTWLYRGQVCTDSGKSSNCIVQRRVKCGFPLKTLHAGITSRDRSLRHCIKCKKEDGDGDVSEGSKKSEEGFEYVTVERHPYHSYMDSTSGKLEPASGARASIPGEDYWPEGTSSRVRAARAPQPAGESSSFPSYGKNPGSRRKKNRKATEENVTVETNDEVSDSEDSSEEEENDSSDGFVTYKNEFEREEEETGFELDKKLGRPHPFIDPTKKKQIEKTLTSDESWWNWRKPEKEQWSRWQRRRPDVETVFLKAMAETGQVKLYGEEPTLTETSLYRARRHLFKEERLQAERERLAKEGPMAFYSEWVKAWKRDTSREAVQKHFEETGEDENTQLIEMFSHQTDREYRIMMGTDIRIKRDPLAMRMREDQIKQIWGGDPVYPTINYIQDPNAVMDFRGPDFHEPTPNMLSYLKENGKVISREMHEALLTKEKTEQLEVPDMDDAMAQAVDIGENDDDEDDADVEKDDEKVPRNWSVLKETPELRTAKPKPKKEGRMSLDEAVDDAENLTDFLMDFEEETDP"

# No constants are given. Whether binding was seen depends on the method and setting. A result given as binding can be weak or reduced; the word gives no strength. Sequences can lack the tags named with a protein.
